Results are given in words; binding and its absence hold for the method and conditions named. Binding seen in cells or lysates may run through a third protein. Here binding means that the protein was enriched with, or labelled near, the bait; the list need not be complete.
Biological target: YELLOW, SERRATED LEAF (YSL)-His fusion protein (Arabidopsis thaliana)
Experiment: affinity purification with mass spectrometry; YSL-His from E. coli purified by His magnetic beads; interacting proteins pulled down from the total protein of Arabidopsis plants; mass spectrometry; only the target purified

binding: binds
B1: VH1-interacting kinase (VIK), endogenous (protein, UniProt Q9XI87 1-438)
chain: MSSDSPAAGDGGEQAAAGTSVPSPSYDKQKEKARVSRTSLILWHAHQNDAAAVRKLLEEDPTLVHARDYDKRTPLHVASLHGWIDVVKCLLEFGADVNAQDRWKNTPLADAEGARKQKMIELLKSHGGLSYGQNGSHFEPKPVPPPIPKKCDWEIEPAELDFSNAAMIGKGSFGEIVKAYWRGTPVAVKRILPSLSDDRLVIQDFRHEVDLLVKLRHPNIVQFLGAVTERKPLMLITEYLRGGDLHQYLKEKGGLTPTTAVNFALDIARGMTYLHNEPNVIIHRDLKPRNVLLVNSSADHLKVGDFGLSKLIKVQNSHDVYKMTGETGSYRYMAPEVFKHRRYDKKVDVFSFAMILYEMLEGEPPFANHEPYEAAKHVSDGHRPTFRSKGCTPDLRELIVKCWDADMNQRPSFLDILKRLEKIKETLPSDHHWGLFTS

Source: PMC11637768
